Reference: US20200392252A1 (ALLOGENE THERAPEUTICS, published 2020)
These are yes or no findings as the source states them, for the method shown. Some results given as binding are weak or reduced against the parent protein; the word gives no strength.

The chains behind the UniProt entries cited, without tags or fusion partners. Where a name states a change or a piece, a line headed by the entry shows the natural chain unless it says otherwise.
UniProt P14870: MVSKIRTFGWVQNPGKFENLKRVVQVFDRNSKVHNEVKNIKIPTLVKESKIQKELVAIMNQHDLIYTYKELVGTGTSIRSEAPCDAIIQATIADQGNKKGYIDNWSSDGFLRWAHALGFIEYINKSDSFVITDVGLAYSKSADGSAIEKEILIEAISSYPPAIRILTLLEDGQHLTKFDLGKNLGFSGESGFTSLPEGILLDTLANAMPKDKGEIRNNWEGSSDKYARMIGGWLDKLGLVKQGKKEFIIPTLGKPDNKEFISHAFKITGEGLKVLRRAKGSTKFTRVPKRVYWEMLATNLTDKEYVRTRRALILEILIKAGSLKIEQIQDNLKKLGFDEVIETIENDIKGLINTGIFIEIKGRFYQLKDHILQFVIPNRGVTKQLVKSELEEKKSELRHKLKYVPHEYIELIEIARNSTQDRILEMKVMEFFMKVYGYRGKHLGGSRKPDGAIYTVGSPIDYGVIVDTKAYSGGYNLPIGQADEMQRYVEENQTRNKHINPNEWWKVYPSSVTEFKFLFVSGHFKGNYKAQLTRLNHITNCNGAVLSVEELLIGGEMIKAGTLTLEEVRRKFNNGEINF

Tests used:
[1] = target: FokI catalytic domain protein including a C-terminal 6xHis tag and GSGS linker (Flavobacterium okeanokoites) (UniProt P14870); test: Biacore SPR, antibody as ligand, FokI as analyte
[2] = target: FokI catalytic domain protein including a C-terminal 6xHis tag and GSGS linker (Flavobacterium okeanokoites) (UniProt P14870); test: ELISA (antigen taken from the row's Analyte column)
[3] = target: FokI catalytic domain protein including a C-terminal 6xHis tag and GSGS linker (Flavobacterium okeanokoites) (UniProt P14870); test: Western blot (antigen taken from the row's Analyte column)

Measured: binding

B1: 2299.5D4.C8 (antibody, V domains shown)
VH: QIQLVQSGPELKKPGETVKISCKASGYTFTDYSIHWVKQAPGEGLKWMAWINTETGAPTFADDFKGRLALSLETSANTAYLQINNLKHEDTATYFCAKEGGFYFYAMDYWGQGTSVTVSS
VL: DIVMSQSPSSLAVSAGEKVTMSCKSSQSLLSSRTRKNYLAWYQQKPGQAPKLLISWASTRESGVPDRFTGSGSGTEFTLTISSVQAEDLAVYYCKQSYNLRTFGGGTKLEIK
binds: [1] | [2] | [3]

B2: 2299.2G3.C6 (antibody, V domains shown)
VH: QIQLVQSGPELKKPGETVKISCKASGYTFTDYSIHWVKQAPGEGLKWMAWINTETGAPTFADDFKGRLALSLETSANTAYLQINNLKHEDTATYFCAKEGGFYFYAMDYWGQGTSVTVSS
VL: DIVMSQSPSSRAVSAGEKVTMSCKSSQSLLSSRTRKNYLAWYQQKPGQAPKMLISWASTREFGVPDRFTGSGFGTDFTLTISSVQGEDLAVYYCKQSYNFRTFGGGTKLEIK
binds: [1] | [2] | [3]

B3: 2299.6G5.C7 (antibody, V domains shown)
VH: QIQLVQSGPELKKPGETVKISCKASGYTFTDYSIHWVKQAPGKGLKWMGWINTETGAPTFADDFKGRFAFSLETSASTAFLQINNLKNEDTATYFCAKEGGFYFYAMDYWGQGTSLTVSS
VL: DIVMSQSPSSLAVSTGEKVTMSCKSSQSLLSSRTRKNYLAWYQQKPGQAPKLLISWASTRESGVPDRFTGSGSGTDFTLTISSVQAEDLAVYYCKQSFNLRTFGGGTKLEIK
binds: [1] | [2] | [3]

B4: 2299.7F11.B4 (antibody, V domains shown)
VH: QIQLVQSGPELKKPGETVKISCKASGYTFTDYSIHWVKQAPGKGLKWMAWINTETGDPTYEDDFKGRFAFSLETSASTAYLQINNLKNEDTATYFCSKEGGFYFYAMDYWGQGTSVTVSS
VL: DIVMSQSPSSLAVSAGEKVTMSCKSSQSLLSSRTRKNYLAWYQQKPGQSPKLLIKWASTRESGVPDRFTGSGSGTDFTLTISSVQAEDLAVYYCKQSYNLRTFGGGTKLEIK
binds: [1] | [2] | [3]

B5: 2299.6B3.B8.B6 (antibody, V domains shown)
VH: QIQLVQSGPELKKPGETVKISCKASGYAFTDYSIHWMKQAPGEGLQWMGWINTETAKPAFGDDFKGRFAFSLETSANTAHLHINNLRTEDTATYFCAKEGGFYFYAMDYWGQGTSVTVSS
VL: DIVMSQSPSSLAVSAGEKVTMNCKSSQSLLSSRTRKNYLAWYQQKPGQSPKLLIYWASTRDSGVPDRFTGSGSGTDFTLTISSVQAEDLAVYYCKQSYNFRTFGGGTKLEIK
binds: [1] | [2] | [3]
